Source: PubChem BioAssay AID652243 (Drosophila RNAi Screening Center, 2013)

Purpose: 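Fly regulators of androgen-dependent reporter output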 (primary screen)
Cells: Drosophila S2R+ cells
Reagents: long dsRNA against Drosophila genes
Duration: 72 h (48 h, then 24 h hormone)
Treatment: synthetic androgen R1881 at 10 nM for 24 h
Read-out: 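Firefly light from an androgen-responsive reporter and Renilla control light per well, raw and unnormalised, for each of two replicates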
Scale: firefly reporter light: higher = more light from androgen-responsive reporter; Renilla control light: higher = more constitutive control signal (cell number, transfection)
Rule for the call: 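Hit when the log firefly-to-Renilla ratio dropped or increased by a fixed fold versus the mean of GFP or LacZ controls across duplicate plates; lowering cut given as 1.5 and as 3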
Calls: active = hit: reporter lowered or raised; inactive = no hit
In all, the deposit lists about 24,000 reagents; below is a random part of those with a known target gene and a result. Of all reagents, 246 (1%) got an active call. 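Plates not normalised; calls are printed but the firefly/Renilla ratio behind them is not deposited; fold cut for lowering reported inconsistently.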 The raw values are shown without normalisation. Reagents against one gene are numbered here. Names joined by + are all predicted targets of the reagent. No sequences are given here. Not stated in the record: the amount of reagent.

gene | reagent no. | firefly reporter light, replicate 1 | firefly reporter light, replicate 2 | Renilla control light, replicate 1 | Renilla control light, replicate 2 | Call
CG11158 | 1 | 4.71e5 | 6.30e5 | 3.66e6 | 4.02e6 | inactive
Or67d (Odorant receptor 67d) | 1 | 2.61e5 | 1.53e5 | 1.76e6 | 9.51e5 | inactive
Nnf1a | 1 | 90708 | 1.17e5 | 1.15e6 | 8.02e5 | inactive
Osi23 (Osiris 23) | 1 | 2.25e5 | 2.83e5 | 2.60e6 | 2.51e6 | inactive
CG12470 | 1 | 2.49e5 | 3.23e5 | 3.10e6 | 3.11e6 | inactive
Ref1 (RNA and export factor binding protein 1) | 1 | 2.06e5 | 1.84e5 | 2.01e6 | 2.18e6 | inactive
Ref1 (RNA and export factor binding protein 1) | 2 | 4.15e5 | 5.07e5 | 1.66e6 | 1.96e6 | inactive
sas (stranded at second) | 1 | 1.11e5 | 1.41e5 | 2.96e6 | 2.70e6 | inactive
CG33140 | 1 | 8.64e5 | 5.15e5 | 1.28e6 | 1.52e6 | inactive
CG33140 | 2 | 3.62e5 | 2.99e5 | 5.86e5 | 5.03e5 | inactive
CG13050 | 1 | 2.09e5 | 1.80e5 | 2.23e6 | 2.39e6 | inactive
CG8353 | 1 | 1.64e5 | 2.06e5 | 1.29e6 | 1.93e6 | inactive
CG8353 | 2 | 2.74e5 | 2.16e5 | 5.28e5 | 5.94e5 | inactive
CG33080 | 1 | 1.84e5 | 2.58e5 | 2.78e6 | 3.56e6 | inactive
CG33080 | 2 | 1.97e5 | 2.77e5 | 2.77e6 | 2.79e6 | inactive
CG33080 | 3 | 1.01e5 | 95534 | 1.29e6 | 1.47e6 | inactive
CG33080 | 4 | 2.73e5 | 2.64e5 | 5.81e5 | 5.78e5 | inactive
CG32024 | 1 | 7.13e5 | 6.44e5 | 1.91e6 | 1.34e6 | inactive
CG14635 | 1 | 3.05e5 | 4.07e5 | 3.11e6 | 3.37e6 | inactive
CG14635 | 2 | 3.81e5 | 4.08e5 | 1.01e6 | 1.36e6 | inactive
usp (ultraspiracle) | 1 | 1.06e5 | 2.25e5 | 2.98e6 | 4.18e6 | inactive
usp (ultraspiracle) | 2 | 98617 | 1.33e5 | 3.30e5 | 1.78e5 | inactive
Usp30 (Ubiquitin specific protease 30) | 1 | 2.84e5 | 2.81e5 | 2.14e6 | 2.75e6 | inactive
Usp30 (Ubiquitin specific protease 30) | 2 | 5.24e5 | 5.66e5 | 8.48e5 | 8.48e5 | inactive
CG8089 | 1 | 42440 | 66810 | 9.45e5 | 9.45e5 | inactive
cry (cryptochrome) | 1 | 1.70e5 | 2.28e5 | 2.35e6 | 2.70e6 | inactive
Dpy-30L2 (Dpy-30-like 2) | 1 | 2.47e5 | 2.22e5 | 3.40e6 | 2.73e6 | inactive
Dpy-30L2 (Dpy-30-like 2) | 2 | 7.15e5 | 1.08e6 | 7.12e5 | 7.09e5 | inactive
Or46a + asRNA:CR43467 | 1 | 3.57e5 | 2.69e5 | 2.58e6 | 2.41e6 | inactive
Or46a + asRNA:CR43467 | 2 | 1.51e5 | 1.12e5 | 1.10e6 | 9.06e5 | inactive
Or46a + asRNA:CR43467 | 3 | 4.78e5 | 4.85e5 | 2.58e6 | 2.66e6 | inactive
Or46a + asRNA:CR43467 | 4 | 3.49e5 | 3.25e5 | 7.59e5 | 7.59e5 | inactive
CG32568 | 1 | 7.60e5 | 4.94e5 | 3.19e6 | 2.65e6 | inactive
CG32568 | 2 | – | – | – | – | inactive
Cpr65Aw (Cuticular protein 65Aw) | 1 | 4.41e5 | 3.34e5 | 1.04e5 | 62673 | inactive
trsn (translin) | 1 | 2.96e5 | 2.21e5 | 1.55e6 | 9.22e5 | inactive
PIG-N (Phosphatidylinositol glycan anchor biosynthesis class N) | 1 | 2.29e5 | 2.38e5 | 1.34e6 | 1.64e6 | inactive
Lint-1 (l(3)mbt interacting protein 1) | 1 | 1.61e5 | 1.06e5 | 1.23e6 | 1.13e6 | inactive
Lint-1 (l(3)mbt interacting protein 1) | 2 | 5.60e5 | 3.83e5 | 1.86e6 | 1.81e6 | inactive
bsd (back seat driver) | 1 | 1.20e5 | 96917 | 5.47e5 | 4.46e5 | inactive
bsd (back seat driver) | 2 | – | – | – | – | inactive
bsd (back seat driver) | 3 | – | – | – | – | inactive
CG34185 | 1 | 7.98e5 | 1.01e6 | 1.80e6 | 2.31e6 | inactive
uex (unextended) | 1 | 7.92e5 | 7.18e5 | 6.42e5 | 5.68e5 | inactive
uex (unextended) | 2 | 6.87e5 | 4.61e5 | 7.17e5 | 8.41e5 | inactive
CG14362 | 1 | 1.62e5 | 1.72e5 | 2.61e6 | 2.49e6 | inactive
CG33474 | 1 | 1.09e5 | 92141 | 3.06e5 | 66740 | inactive
CG6195 | 1 | 2.20e5 | 3.36e5 | 3.07e6 | 3.25e6 | inactive
CG6195 | 2 | 7.11e5 | 7.38e5 | 8.62e5 | 8.79e5 | inactive
EloA (Elongin A) | 1 | 8397 | 15908 | 1.68e5 | 1.91e5 | inactive
EloA (Elongin A) | 2 | 4.29e5 | 4.32e5 | 5.05e5 | 6.28e5 | inactive
mub (mushroom-body expressed) | 1 | 32686 | 29352 | 3.93e5 | 3.26e5 | inactive
mub (mushroom-body expressed) | 2 | 5.62e5 | 4.30e5 | 1.05e6 | 9.86e5 | inactive
Mettl3 (Methyltransferase like 3) | 1 | 1.17e5 | 1.74e5 | 1.69e6 | 2.28e6 | inactive
Mettl3 (Methyltransferase like 3) | 2 | 3.17e5 | 2.79e5 | 6.48e5 | 7.15e5 | inactive
CG13026 | 1 | 2.78e5 | 1.64e5 | 3.14e6 | 2.14e6 | inactive
qin | 1 | 2.10e5 | 2.48e5 | 1.66e6 | 1.84e6 | inactive
qin | 2 | 1.46e5 | 1.92e5 | 1.62e6 | 2.06e6 | inactive

8 successive reagents from above:
gene | reagent no. | firefly reporter light, replicate 1 | firefly reporter light, replicate 2 | Renilla control light, replicate 1 | Renilla control light, replicate 2 | Call
CG32568 | 1 | 7.60e5 | 4.94e5 | 3.19e6 | 2.65e6 | inactive
CG32568 | 2 | – | – | – | – | inactive
Cpr65Aw (Cuticular protein 65Aw) | 1 | 4.41e5 | 3.34e5 | 1.04e5 | 62673 | inactive
trsn (translin) | 1 | 2.96e5 | 2.21e5 | 1.55e6 | 9.22e5 | inactive
PIG-N (Phosphatidylinositol glycan anchor biosynthesis class N) | 1 | 2.29e5 | 2.38e5 | 1.34e6 | 1.64e6 | inactive
Lint-1 (l(3)mbt interacting protein 1) | 1 | 1.61e5 | 1.06e5 | 1.23e6 | 1.13e6 | inactive
Lint-1 (l(3)mbt interacting protein 1) | 2 | 5.60e5 | 3.83e5 | 1.86e6 | 1.81e6 | inactive
bsd (back seat driver) | 1 | 1.20e5 | 96917 | 5.47e5 | 4.46e5 | inactive
